PubChem BioAssay AID1259254 – NCATS | 2017
Shown is one part, drawn at random, of about 59,000 reagents tested. In the full data, about 1,550 (2.6%) got an active call. 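G2 share is only a proxy for re-replication; each gene was hit by three separate siRNAs, and active genes were retested.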 The raw values are shown without normalisation. Reagents against one gene are numbered here. Not given: the amount of reagent.

Purpose: 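Finding genes that stop cells copying their DNA twice in one cycle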 (primary screen)
System: human HCT116 colorectal cancer cells
Reagent: single siRNA against human genes
Time to read-out: 3 days
Measurement: 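Imaged Hoechst DNA stain sorts each cell into a cycle phase by DNA amount; per plate, G2 fraction set to 0% for non-targeting and 100% for GMNN siRNA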
Reading the numbers: G2 robust z-score and G2 cells, % of GMNN control: higher = more G2 cells, more excess DNA replication; raw share of cells in G2: higher = larger share of cells with G2 DNA content
Rule for the call: 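An siRNA counts as active if its G2 robust z-score lies at least 5 MADs above the screen median; here such calls match roughly 38% of GMNN control or more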

no.	Gene	siRNA no.	G2 robust z-score	G2 cells, % of GMNN control	raw share of cells in G2 (%)	call
1	MIP	1	-0.232	1.34	6	inactive
2	MIP	2	-0.632	-1.48	2.71	inactive
3	MIP	3	-0.313	0.767	5.66	inactive
4	DENND2A	1	0.0905	3.6	4.39	inactive
5	DENND2A	2	-1.16	-5.22	1.86	inactive
6	DENND2A	3	-0.063	2.52	5.5	inactive
7	LUZP4	1	-0.871	-3.16	2.65	inactive
8	LUZP4	2	0.203	4.4	6.21	inactive
9	LUZP4	3	-0.555	-0.935	2.96	inactive
10	AGR3	1	0.572	6.99	6.11	inactive
11	AGR3	2	0.473	6.29	5.07	inactive
12	AGR3	3	-0.434	-0.0855	2.74	inactive

Quoted from the entries so far for reference:
no.	Gene	siRNA no.	G2 robust z-score	G2 cells, % of GMNN control	raw share of cells in G2 (%)	call
3	MIP	3	-0.313	0.767	5.66	inactive
4	DENND2A	1	0.0905	3.6	4.39	inactive
5	DENND2A	2	-1.16	-5.22	1.86	inactive

Additional results follow.
no.	Gene	siRNA no.	G2 robust z-score	G2 cells, % of GMNN control	raw share of cells in G2 (%)	call
13	PNMT	1	-0.677	-1.8	3.99	inactive
14	PNMT	2	-0.227	1.37	5.45	inactive
15	PNMT	3	1.34	12.4	8.26	inactive
16	ILRUN	1	0.416	5.89	7.15	inactive
17	ILRUN	2	1.12	10.9	9.48	inactive
18	ILRUN	3	-0.552	-0.914	2.46	inactive
19	ZNF678	1	0.936	9.55	6.38	inactive
20	ZNF678	2	-0.293	0.904	3.48	inactive
21	ZNF678	3	-0.381	0.289	3.63	inactive
22	LHFPL1	1	2.32	19.3	10.6	inactive
23	LHFPL1	2	2.04	17.3	10.8	inactive
24	LHFPL1	3	-0.417	0.0327	4.2	inactive
25	CDRT15P13	1	0.432	6	5.69	inactive
26	CDRT15P13	2	1.97	16.8	8.83	inactive
27	CDRT15P13	3	2.24	18.7	10.8	inactive
28	MSMO1	1	-0.708	-2.02	3.47	inactive
29	MSMO1	2	-0.448	-0.181	4.92	inactive
30	MSMO1	3	-0.219	1.43	5.22	inactive
